# Test results from the supplement of paper PMC10032668.
# Protein sequences, listed by entry. Tags and fused reporters are not part of them.
# CALR, P27797, UniProt P27797, whole entry: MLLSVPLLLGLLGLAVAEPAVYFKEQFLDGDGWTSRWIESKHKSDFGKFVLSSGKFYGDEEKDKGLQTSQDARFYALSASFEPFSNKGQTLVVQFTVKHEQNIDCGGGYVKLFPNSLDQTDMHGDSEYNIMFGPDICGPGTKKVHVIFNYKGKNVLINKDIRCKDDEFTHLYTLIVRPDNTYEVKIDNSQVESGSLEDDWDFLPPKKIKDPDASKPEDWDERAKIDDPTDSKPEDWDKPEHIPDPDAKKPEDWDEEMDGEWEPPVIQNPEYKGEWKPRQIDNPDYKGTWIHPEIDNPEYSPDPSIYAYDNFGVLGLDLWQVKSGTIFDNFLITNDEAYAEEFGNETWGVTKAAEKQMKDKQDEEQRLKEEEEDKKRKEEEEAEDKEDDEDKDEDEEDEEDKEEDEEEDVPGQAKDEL
# PPP2R5D, Q14738, UniProt Q14738, whole entry: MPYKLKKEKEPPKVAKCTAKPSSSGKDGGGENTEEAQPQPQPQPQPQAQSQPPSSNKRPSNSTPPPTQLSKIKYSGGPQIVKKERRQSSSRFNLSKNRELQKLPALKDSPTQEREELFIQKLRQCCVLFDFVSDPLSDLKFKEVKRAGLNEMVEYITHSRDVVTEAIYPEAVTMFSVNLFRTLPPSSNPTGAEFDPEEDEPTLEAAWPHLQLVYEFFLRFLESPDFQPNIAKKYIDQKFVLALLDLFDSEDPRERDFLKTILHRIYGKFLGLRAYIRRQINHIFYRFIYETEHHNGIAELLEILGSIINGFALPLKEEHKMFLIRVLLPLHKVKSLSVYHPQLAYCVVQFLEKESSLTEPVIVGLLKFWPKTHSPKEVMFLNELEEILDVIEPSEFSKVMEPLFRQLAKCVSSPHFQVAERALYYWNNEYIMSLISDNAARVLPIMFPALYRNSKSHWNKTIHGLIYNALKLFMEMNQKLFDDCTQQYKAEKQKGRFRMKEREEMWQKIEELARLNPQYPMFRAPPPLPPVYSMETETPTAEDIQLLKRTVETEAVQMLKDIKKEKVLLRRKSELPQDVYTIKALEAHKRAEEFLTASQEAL
# ± gives the standard deviation of the averaged measurements. The list shows a part of the results. Only hits are listed; about a third recur on repeated control peptides.
# Columns and labels:
# Test in all cases: PRISMA enrichment of interactor (LFQ) in peptide spot vs all other peptide spots (log2 fold change); higher = stronger / more specific binding of the interactor to the peptide
# ASNS, P08243 = biological target: ASNS, P08243
# Method: (§1)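 PRISMA: 15-aa overlapping tiles (offset 8 aa) of 60 microproteins, plus SOS1/GLUT1 control peptides, were spot-synthesized on cellulose membranes in triplicate. Membranes were incubated with benzonase-treated HEK293T lysate, and bound proteins were identified by LC-MS/MS with LFQ. Enrichment is the log2 fold change of each protein in one spot versus all other spots. Only interactors passing the significance cutoff are listed.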
# ATP6V0D1, P61421 = biological target: ATP6V0D1, P61421
# Method: as §1
# CALR, P27797 = biological target: CALR, P27797
# Method: as §1
# CCDC47, Q96A33 = biological target: CCDC47, Q96A33
# Method: as §1
# CDK9, P50750 = biological target: CDK9, P50750
# Method: as §1
# DES, P17661 = biological target: DES, P17661
# Method: as §1
# EARS2, Q5JPH6 = biological target: EARS2, Q5JPH6
# Method: as §1
# KARS, Q15046 = biological target: KARS, Q15046
# Method: as §1
# MRPL24, Q96A35 = biological target: MRPL24, Q96A35
# Method: as §1
# MRPS34, P82930 = biological target: MRPS34, P82930
# Method: as §1
# MRPS5, P82675 = biological target: MRPS5, P82675
# Method: as §1
# NAA10, P41227 = biological target: NAA10, P41227
# Method: as §1
# OLA1, Q9NTK5 = biological target: OLA1, Q9NTK5
# Method: as §1
# POLD2, P49005 = biological target: POLD2, P49005
# Method: as §1
# SDF2L1, Q9HCN8 = biological target: SDF2L1, Q9HCN8
# Method: as §1
# SNX1, Q13596 = biological target: SNX1, Q13596
# Method: as §1
# C19orf53, Q9UNZ5 = biological target: C19orf53, Q9UNZ5
# Method: as §1
# EP400, Q96L91 = biological target: EP400, Q96L91
# Method: as §1
# EXOC3, O60645 = biological target: EXOC3, O60645
# Method: as §1
# FLII, Q13045 = biological target: FLII, Q13045
# Method: as §1
# FN1, P02751 = biological target: FN1, P02751
# Method: as §1
# GPS1, Q13098 = biological target: GPS1, Q13098
# Method: as §1
# LRRC40, Q9H9A6 = biological target: LRRC40, Q9H9A6
# Method: as §1
# MAGT1, Q9H0U3 = biological target: MAGT1, Q9H0U3
# Method: as §1
# MAP7D2, Q96T17 = biological target: MAP7D2, Q96T17
# Method: as §1
# MUC19, Q7Z5P9 = biological target: MUC19, Q7Z5P9
# Method: as §1
# NSDHL, Q15738 = biological target: NSDHL, Q15738
# Method: as §1
# PDP1, Q9P0J1 = biological target: PDP1, Q9P0J1
# Method: as §1
# [1] = substrate: PPIF, P30405
# Method: as §1
# PPP2R5D, Q14738 = biological target: PPP2R5D, Q14738
# Method: as §1
# RPS19BP1, Q86WX3 = biological target: RPS19BP1, Q86WX3
# Method: as §1
# SDAD1, Q9NVU7 = biological target: SDAD1, Q9NVU7
# Method: as §1
# SEMG2, Q02383 = biological target: SEMG2, Q02383
# Method: as §1
# TFB1M, Q8WVM0 = biological target: TFB1M, Q8WVM0
# Method: as §1
# TFG, Q92734 = biological target: TFG, Q92734
# Method: as §1
# TMEM109, Q9BVC6 = biological target: TMEM109, Q9BVC6
# Method: as §1
# TRMT112, Q9UI30 = biological target: TRMT112, Q9UI30
# Method: as §1
# U2SURP, O15042 = biological target: U2SURP, O15042
# Method: as §1
# UTP20, O75691 = biological target: UTP20, O75691
# Method: as §1
# WDR46, O15213 = biological target: WDR46, O15213
# Method: as §1
# ASPM, Q8IZT6 = biological target: ASPM, Q8IZT6
# Method: as §1
# C1QBP, Q07021 = biological target: C1QBP, Q07021
# Method: as §1
# CD2AP, Q9Y5K6 = biological target: CD2AP, Q9Y5K6
# Method: as §1
# CDIPT, O14735 = biological target: CDIPT, O14735
# Method: as §1
# GLMN, Q92990 = biological target: GLMN, Q92990
# Method: as §1
# MRPL27, Q9P0M9 = biological target: MRPL27, Q9P0M9
# Method: as §1
# NAP1L1, P55209 = biological target: NAP1L1, P55209
# Method: as §1
# RPF2, Q9H7B2 = biological target: RPF2, Q9H7B2
# Method: as §1
# SMNDC1, O75940 = biological target: SMNDC1, O75940
# Method: as §1
# STUB1, Q9UNE7 = biological target: STUB1, Q9UNE7
# Method: as §1
binder,measurement,setting,value
LKVVLREAVAECLMD [PVT1],PRISMA enrichment of interactor (log2),"ASNS, P08243",8.28
same,PRISMA enrichment of interactor (log2),"ATP6V0D1, P61421",7.6
same,PRISMA enrichment of interactor (log2),"CALR, P27797",6.66
same,PRISMA enrichment of interactor (log2),"CCDC47, Q96A33",5.69
same,PRISMA enrichment of interactor (log2),"CDK9, P50750",6.35
same,PRISMA enrichment of interactor (log2),"DES, P17661",4.6
same,PRISMA enrichment of interactor (log2),"EARS2, Q5JPH6",7.56
same,PRISMA enrichment of interactor (log2),"KARS, Q15046",4.92
same,PRISMA enrichment of interactor (log2),"MRPL24, Q96A35",4.62
same,PRISMA enrichment of interactor (log2),"MRPS34, P82930",7.33
same,PRISMA enrichment of interactor (log2),"MRPS5, P82675",7.16
same,PRISMA enrichment of interactor (log2),"NAA10, P41227",6.01
same,PRISMA enrichment of interactor (log2),"OLA1, Q9NTK5",4.99
same,PRISMA enrichment of interactor (log2),"POLD2, P49005",6.04
same,PRISMA enrichment of interactor (log2),"SDF2L1, Q9HCN8",8.34
same,PRISMA enrichment of interactor (log2),"SNX1, Q13596",5.16
GMSIQFPLLRDLVTE [RP1-206D15.6],PRISMA enrichment of interactor (log2),"ASNS, P08243",6.4
same,PRISMA enrichment of interactor (log2),"C19orf53, Q9UNZ5",6.73
same,PRISMA enrichment of interactor (log2),"EP400, Q96L91",6.18
same,PRISMA enrichment of interactor (log2),"EXOC3, O60645",4.59
same,PRISMA enrichment of interactor (log2),"FLII, Q13045",5.86
same,PRISMA enrichment of interactor (log2),"FN1, P02751",7.78
same,PRISMA enrichment of interactor (log2),"GPS1, Q13098",4.35
same,PRISMA enrichment of interactor (log2),"LRRC40, Q9H9A6",6.86
same,PRISMA enrichment of interactor (log2),"MAGT1, Q9H0U3",5.53
same,PRISMA enrichment of interactor (log2),"MAP7D2, Q96T17",5.21
same,PRISMA enrichment of interactor (log2),"MUC19, Q7Z5P9",7.2
same,PRISMA enrichment of interactor (log2),"NSDHL, Q15738",4.23
same,PRISMA enrichment of interactor (log2),"PDP1, Q9P0J1",5.36
same,PRISMA enrichment of interactor (log2),[1],4.79
same,PRISMA enrichment of interactor (log2),"PPP2R5D, Q14738",8.9
same,PRISMA enrichment of interactor (log2),"RPS19BP1, Q86WX3",4.76
same,PRISMA enrichment of interactor (log2),"SDAD1, Q9NVU7",5.66
same,PRISMA enrichment of interactor (log2),"SEMG2, Q02383",4.15
same,PRISMA enrichment of interactor (log2),"TFB1M, Q8WVM0",4.94
same,PRISMA enrichment of interactor (log2),"TFG, Q92734",4.99
same,PRISMA enrichment of interactor (log2),"TMEM109, Q9BVC6",4.84
same,PRISMA enrichment of interactor (log2),"TRMT112, Q9UI30",7.08
same,PRISMA enrichment of interactor (log2),"U2SURP, O15042",6.07
same,PRISMA enrichment of interactor (log2),"UTP20, O75691",8.56
same,PRISMA enrichment of interactor (log2),"WDR46, O15213",5.63
MSPGRARRLPQATAR [SLCO5A1],PRISMA enrichment of interactor (log2),"ASPM, Q8IZT6",4.97
same,PRISMA enrichment of interactor (log2),"C1QBP, Q07021",6.3
same,PRISMA enrichment of interactor (log2),"CD2AP, Q9Y5K6",5.96
same,PRISMA enrichment of interactor (log2),"CDIPT, O14735",4.86
same,PRISMA enrichment of interactor (log2),"GLMN, Q92990",5
same,PRISMA enrichment of interactor (log2),"MRPL27, Q9P0M9",8.02
same,PRISMA enrichment of interactor (log2),"NAP1L1, P55209",5.21 ± 0.76
same,PRISMA enrichment of interactor (log2),"RPF2, Q9H7B2",6.03
same,PRISMA enrichment of interactor (log2),"SMNDC1, O75940",4.76
same,PRISMA enrichment of interactor (log2),"STUB1, Q9UNE7",6.55

# Laid out differently: results already given
binder	measurement	setting	value
LKVVLREAVAECLMD [PVT1]	PRISMA enrichment of interactor (log2)	SDF2L1, Q9HCN8	8.34
same	PRISMA enrichment of interactor (log2)	SNX1, Q13596	5.16
GMSIQFPLLRDLVTE [RP1-206D15.6]	PRISMA enrichment of interactor (log2)	ASNS, P08243	6.4
same	PRISMA enrichment of interactor (log2)	C19orf53, Q9UNZ5	6.73
same	PRISMA enrichment of interactor (log2)	EP400, Q96L91	6.18
same	PRISMA enrichment of interactor (log2)	EXOC3, O60645	4.59
same	PRISMA enrichment of interactor (log2)	FLII, Q13045	5.86
same	PRISMA enrichment of interactor (log2)	FN1, P02751	7.78
same	PRISMA enrichment of interactor (log2)	GPS1, Q13098	4.35
same	PRISMA enrichment of interactor (log2)	LRRC40, Q9H9A6	6.86
same	PRISMA enrichment of interactor (log2)	MAGT1, Q9H0U3	5.53
same	PRISMA enrichment of interactor (log2)	MAP7D2, Q96T17	5.21
same	PRISMA enrichment of interactor (log2)	MUC19, Q7Z5P9	7.2
same	PRISMA enrichment of interactor (log2)	NSDHL, Q15738	4.23
same	PRISMA enrichment of interactor (log2)	PDP1, Q9P0J1	5.36
